The source of these data is paper PMC5402393, “Interactions of AMTN, ODAM and SCPPPQ1 proteins of a specialized basal lamina that attaches epithelial cells to tooth mineral” (Scientific Reports, 2017).

Experiment [1] has as its target T1, human amelotin (hAMTN), fusion to the T18 or T25 fragment of adenylate cyclase (human) (UniProt Q6UX39).
T1 sequence: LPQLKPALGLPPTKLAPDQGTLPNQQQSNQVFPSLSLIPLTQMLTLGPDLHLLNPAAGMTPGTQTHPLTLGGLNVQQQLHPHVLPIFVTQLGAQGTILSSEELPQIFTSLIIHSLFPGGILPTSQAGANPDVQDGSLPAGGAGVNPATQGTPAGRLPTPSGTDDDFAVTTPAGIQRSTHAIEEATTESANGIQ
Put plainly: two-hybrid; bacterial two-hybrid (BTH): fusions to the T18 and T25 fragments of B. pertussis adenylate cyclase co-expressed in E. coli BTH101 (cya deficient); cAMP-inducible beta-galactosidase activity, X-gal colonies then ONPG quantification.

Experiment [2] concerns the target T2, rat AMTN, bacterial two-hybrid fusion (rat) (UniProt Q3HS82).
T2 sequence: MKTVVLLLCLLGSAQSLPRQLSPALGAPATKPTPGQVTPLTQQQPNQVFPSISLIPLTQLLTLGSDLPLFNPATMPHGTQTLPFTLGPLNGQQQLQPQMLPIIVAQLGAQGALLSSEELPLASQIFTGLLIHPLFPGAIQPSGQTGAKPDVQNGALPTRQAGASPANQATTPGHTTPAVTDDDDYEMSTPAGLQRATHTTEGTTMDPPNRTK
The description is as above.

Experiment [3] concerns the target T3, rat SCPPPQ1, bacterial two-hybrid fusion (rat) (UniProt D6QY17).
T3 sequence: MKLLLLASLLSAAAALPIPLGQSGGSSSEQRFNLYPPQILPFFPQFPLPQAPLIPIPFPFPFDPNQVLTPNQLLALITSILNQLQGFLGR
Described as above.

Experiment [4] concerns the target recombinant rat AMTN (rat) (UniProt Q3HS82). Description: SEC; gel filtration of recombinant rat homologs; data not shown; both purified.
The target in experiment [5] is rat ODAM, bacterial two-hybrid fusion (rat) (UniProt Q3HS83). Description: two-hybrid; bacterial two-hybrid (BTH): fusions to the T18 and T25 fragments of B. pertussis adenylate cyclase co-expressed in E. coli BTH101 (cya deficient); cAMP-inducible beta-galactosidase activity, X-gal colonies then ONPG quantification.
Experiment [6] concerns the target recombinant rat ODAM (rat) (UniProt Q3HS83). Description: SEC; gel filtration of recombinant rat homologs; data not shown; both purified.
Experiment [7] deals with T4, His-tagged human ODAM (pHT vector), co-expressed in E. coli (human) (UniProt A1E959).
T4 sequence: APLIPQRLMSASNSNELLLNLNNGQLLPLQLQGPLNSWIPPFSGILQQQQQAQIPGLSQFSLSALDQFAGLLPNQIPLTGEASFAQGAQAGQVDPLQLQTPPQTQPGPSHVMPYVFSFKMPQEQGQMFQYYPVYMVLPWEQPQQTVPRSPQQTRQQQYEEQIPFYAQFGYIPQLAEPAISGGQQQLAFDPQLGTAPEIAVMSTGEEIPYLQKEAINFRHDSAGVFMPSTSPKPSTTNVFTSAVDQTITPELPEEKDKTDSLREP
Put plainly: co-IP; lysate of E. coli BL21(DE3)-star co-expressing two or three His-tagged proteins (pHT vectors); specific antiserum, Protein A-Sepharose, 4 °C, five PBS rinses, glycine pH 1.8 elution; Western blot with anti-His-tag antibodies.

In experiment [8] the target is T5, His-tagged human SCPPPQ1 (pHT vector), co-expressed in E. coli (human).
T5 sequence: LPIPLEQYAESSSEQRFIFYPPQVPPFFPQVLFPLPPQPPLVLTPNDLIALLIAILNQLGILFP
The experiment is described as above.

The target in experiment [9] is T6, human secretory calcium-binding phosphoprotein proline-glutamine rich 1 (hSCPPPQ1), fusion to the T18 or T25 fragment of adenylate cyclase (human).
T6 sequence: T5 sequence
Put plainly: two-hybrid; bacterial two-hybrid (BTH): fusions to the T18 and T25 fragments of B. pertussis adenylate cyclase co-expressed in E. coli BTH101 (cya deficient); cAMP-inducible beta-galactosidase activity, X-gal colonies then ONPG quantification.

In experiment [10] the target is human odontogenic ameloblast-associated protein (hODAM), fusion to the T18 or T25 fragment of adenylate cyclase (human) (UniProt A1E959). The experiment is described as above.
Experiment [11] has as its target T7, His-tagged human AMTN (pHT vector), co-expressed in E. coli (human) (UniProt Q6UX39).
T7 sequence: T1 sequence
Description: co-IP; lysate of E. coli BL21(DE3)-star co-expressing two or three His-tagged proteins (pHT vectors); specific antiserum, Protein A-Sepharose, 4 °C, five PBS rinses, glycine pH 1.8 elution; Western blot with anti-His-tag antibodies.

Results are given in words; binding and its absence hold for the method and conditions named. For part of these data: Binding seen in cells or lysates may run through a third protein. Some entries that bind do so weakly or less than the wild type. For part of these data: Tags and fused reporters may be left off the sequences shown.

B1: rat AMTN, bacterial two-hybrid fusion (protein, UniProt Q3HS82 1-212)
chain: T2 sequence
Consider B1, for which the binding entry in [1], in experiment [2] and in experiment [3] was “binds” throughout.

B2: recombinant rat AMTN (protein, UniProt Q3HS82 17-212)
chain: LPRQLSPALGAPATKPTPGQVTPLTQQQPNQVFPSISLIPLTQLLTLGSDLPLFNPATMPHGTQTLPFTLGPLNGQQQLQPQMLPIIVAQLGAQGALLSSEELPLASQIFTGLLIHPLFPGAIQPSGQTGAKPDVQNGALPTRQAGASPANQATTPGHTTPAVTDDDDYEMSTPAGLQRATHTTEGTTMDPPNRTK
As to B2, the binding entry in [4] is given as “binds”.

B3: rat ODAM, bacterial two-hybrid fusion (protein, UniProt Q3HS83 1-278)
chain: MKIIILLGLIGATSSAPLITQRLLSASNSHELLLNLNNGQLLPLQFQSAFNSWIPPFPGLLQQQQQQAQVSGHPQFPLSTLESFAGLFPNQIPFSRQVGFAQGGQAGQPDFSQQQTPSQTQQASPMSYVVPVKVPQDQTQMFQYYPVYMLLPWEQPQQTVTSSPQQTGQQLYEEQIPFYNQFGFVPQQAEPGVPGGQQHLVLDSFVGTAPETPGMPAVEGPLYPQKEPIGFKQDNVGVSTPSTSPKPDTGNFFTSEINPTIAPLLPEQKVNADSLREP
Consider B3, for which the binding entry in experiment [2], in experiment [3] and in experiment [5] was “binds” each time.

B4: recombinant rat ODAM (protein, UniProt Q3HS83 16-278)
chain: APLITQRLLSASNSHELLLNLNNGQLLPLQFQSAFNSWIPPFPGLLQQQQQQAQVSGHPQFPLSTLESFAGLFPNQIPFSRQVGFAQGGQAGQPDFSQQQTPSQTQQASPMSYVVPVKVPQDQTQMFQYYPVYMLLPWEQPQQTVTSSPQQTGQQLYEEQIPFYNQFGFVPQQAEPGVPGGQQHLVLDSFVGTAPETPGMPAVEGPLYPQKEPIGFKQDNVGVSTPSTSPKPDTGNFFTSEINPTIAPLLPEQKVNADSLREP
Take B4: in experiment [6], the binding result was “binds”.

B5: His-tagged human AMTN (pHT vector), co-expressed in E. coli (protein, UniProt Q6UX39 17-209)
chain: T1 sequence
Regarding B5, the binding result in experiment [7] and in [8] was “binds” throughout.

B6: human amelotin (hAMTN), fusion to the T18 or T25 fragment of adenylate cyclase (protein, UniProt Q6UX39 17-209)
chain: T1 sequence
As for B6, the binding result in experiment [1] and in [9] was “binds” in each case.

B7: human odontogenic ameloblast-associated protein (hODAM), fusion to the T18 or T25 fragment of adenylate cyclase (protein, UniProt A1E959 16-279)
chain: T4 sequence
As for B7, the binding result in experiment [10], in experiment [1] and in experiment [9] was “binds” in each case.

B8: His-tagged human ODAM (pHT vector), co-expressed in E. coli (protein, UniProt A1E959 16-279)
chain: T4 sequence
Consider B8, for which the binding result in [8] and in experiment [11] was “binds” in each case.

B9: His-tagged human SCPPPQ1 (pHT vector), co-expressed in E. coli (protein, UniProt A0A411D538 16-79)
chain: T5 sequence
Regarding B9, the binding result in [7] and in experiment [11] was “binds” in each case.

B10: human secretory calcium-binding phosphoprotein proline-glutamine rich 1 (hSCPPPQ1), fusion to the T18 or T25 fragment of adenylate cyclase (protein, UniProt A0A411D538 16-79)
chain: T5 sequence
Take B10: the binding entry in [9] is “binds”.

B11: rat SCPPPQ1, bacterial two-hybrid fusion (protein, UniProt D6QY17 1-90)
chain: T3 sequence
On to B11, for which the binding entry in [3] is on record as “binds”.
